According to PMC5037431:
These are yes or no findings as the source states them, for the method shown. Binding seen in cells or lysates may run through a third protein.

Protein sequences, listed by entry. Tags and fused reporters are not part of them.
UniProt Q13546: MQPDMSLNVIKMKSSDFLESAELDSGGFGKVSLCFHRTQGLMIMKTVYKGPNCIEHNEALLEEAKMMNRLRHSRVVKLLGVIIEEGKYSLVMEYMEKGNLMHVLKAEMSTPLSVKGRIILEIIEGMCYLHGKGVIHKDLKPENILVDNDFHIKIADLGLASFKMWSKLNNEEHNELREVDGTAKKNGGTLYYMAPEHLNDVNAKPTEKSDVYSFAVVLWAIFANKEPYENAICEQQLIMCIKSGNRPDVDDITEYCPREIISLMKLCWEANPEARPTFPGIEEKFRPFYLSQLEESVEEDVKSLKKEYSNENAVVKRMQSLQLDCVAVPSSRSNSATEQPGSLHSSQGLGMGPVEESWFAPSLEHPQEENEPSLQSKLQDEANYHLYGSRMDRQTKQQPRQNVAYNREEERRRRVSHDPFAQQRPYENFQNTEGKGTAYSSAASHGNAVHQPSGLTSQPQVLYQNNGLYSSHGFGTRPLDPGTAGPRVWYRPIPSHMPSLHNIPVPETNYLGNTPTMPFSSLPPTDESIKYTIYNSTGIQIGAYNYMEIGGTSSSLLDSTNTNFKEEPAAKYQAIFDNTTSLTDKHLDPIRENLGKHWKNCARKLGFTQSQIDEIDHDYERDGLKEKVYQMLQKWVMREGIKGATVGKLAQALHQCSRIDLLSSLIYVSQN

Target: RIP1 (UniProt Q13546)
Test: co-IP; HEK293T cells transfected with RIP1 and JMJD8 constructs; IPKA lysis buffer; 500 μg total protein immunoprecipitated with anti-c-Myc, FLAG or mouse IgG antibody and protein A/G beads overnight at 4 °C; 4 washes; immunoblot

binding: no binding
B1: Jumonji domain-containing protein 8 (JMJD8) (protein, UniProt Q96S16 24-264)
chain: EGDGGWRPGGPGAVAEEERCTVERRADLTYAEFVQQYAFVRPVILQGLTDNSRFRALCSRDRLLASFGDRVVRLSTANTYSYHKVDLPFQEYVEQLLHPQDPTSLGNDTLYFFGDNNFTEWASLFRHYSPPPFGLLGTAPAYSFGIAGAGSGVPFHWHGPGYSEVIYGRKRWFLYPPEKTPEFHPNKTTLAWLRDTYPALPPSARPLECTIRAGEVLYFPDRWWHATLNLDTSVFISTFLG
